The target of experiment [1] is T1, BD-AtSUMO5 (Arabidopsis thaliana) (UniProt Q8VZI7).
T1 sequence: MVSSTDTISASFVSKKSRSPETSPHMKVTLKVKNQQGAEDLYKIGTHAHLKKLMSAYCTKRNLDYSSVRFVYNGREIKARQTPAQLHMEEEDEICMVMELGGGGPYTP
The experiment can be described thus: two-hybrid; Gal4-based system (Clontech); AD fusions in pGAD424, BD fusions in pGBT8; yeast AH109; growth on -Leu/-Trp/-His minimal medium with 1 or 5 mM 3-AT.

Experiment [2] deals with T2, BD-AtSUMO3 (Arabidopsis thaliana) (UniProt Q9FLP5).
T2 sequence: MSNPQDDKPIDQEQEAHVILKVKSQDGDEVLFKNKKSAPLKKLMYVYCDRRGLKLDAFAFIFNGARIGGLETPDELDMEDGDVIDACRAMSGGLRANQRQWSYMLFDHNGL
The experiment is described as above.

In experiment [3] the target is T3, BD-AtSCE1 (SUMO-conjugating E2 enzyme SCE1) (Arabidopsis thaliana) (UniProt Q42551).
T3 sequence: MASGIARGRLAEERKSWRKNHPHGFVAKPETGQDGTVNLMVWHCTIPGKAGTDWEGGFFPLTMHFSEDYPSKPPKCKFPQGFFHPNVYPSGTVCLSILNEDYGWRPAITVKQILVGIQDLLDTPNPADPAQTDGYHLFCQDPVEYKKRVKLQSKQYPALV
Described as above.

In experiment [4] the target is T4, EYFP(N)-CNGC6 (cyclic nucleotide-gated ion channel 6) (Arabidopsis thaliana) (UniProt O82226).
T4 sequence: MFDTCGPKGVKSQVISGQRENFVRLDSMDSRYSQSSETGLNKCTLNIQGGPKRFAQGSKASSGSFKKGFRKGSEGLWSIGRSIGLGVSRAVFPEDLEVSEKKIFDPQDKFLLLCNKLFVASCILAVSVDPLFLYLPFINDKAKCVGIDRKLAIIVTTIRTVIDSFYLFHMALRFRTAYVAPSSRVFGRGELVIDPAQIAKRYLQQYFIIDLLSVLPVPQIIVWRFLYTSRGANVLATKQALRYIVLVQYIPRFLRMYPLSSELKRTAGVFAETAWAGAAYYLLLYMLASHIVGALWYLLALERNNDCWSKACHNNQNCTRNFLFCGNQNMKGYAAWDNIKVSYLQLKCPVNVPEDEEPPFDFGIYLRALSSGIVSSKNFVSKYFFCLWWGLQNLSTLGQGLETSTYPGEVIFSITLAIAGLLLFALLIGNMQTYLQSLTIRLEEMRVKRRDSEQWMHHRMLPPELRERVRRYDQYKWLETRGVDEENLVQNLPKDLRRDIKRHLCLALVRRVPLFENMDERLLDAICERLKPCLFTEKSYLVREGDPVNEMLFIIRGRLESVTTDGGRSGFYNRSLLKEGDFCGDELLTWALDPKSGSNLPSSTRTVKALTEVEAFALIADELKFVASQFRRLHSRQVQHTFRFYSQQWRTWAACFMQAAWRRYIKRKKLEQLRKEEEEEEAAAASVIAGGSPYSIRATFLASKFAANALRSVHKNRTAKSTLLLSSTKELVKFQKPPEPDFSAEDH
The experiment can be described thus: split reporter; EYFP(N)-CNGC6 and EYFP(C)-SSV2 coinfiltrated into N. benthamiana leaves by Agrobacterium; YFP signal by CLSM.

No constants are given. Whether binding was seen depends on the method and setting. Binding calls can cover weak binding; strength is not graded here. Where a sequence is shown, tags or fusion partners need not be part of it. For some assays here: In cells and extracts the contact can be indirect.

As to “AD-SIZ1 (Arabidopsis E3 SUMO ligase SIZ1, 873 aa) (enzyme)”, the binding entry in experiment [1], in experiment [2] and in experiment [3] was “binds” throughout.
For the substance “AD-SSV1 (SIZ1 splicing variant 1, 885 aa) (Arabidopsis thaliana) (enzyme)”, the binding entry in experiment [1] is recorded as “binds weakly”; in experiment [2], “binds weakly”; in experiment [3] it was “binds”.
As to “AD-SSV2 (SIZ1 splicing variant 2, 832 aa) (Arabidopsis thaliana) (enzyme)”, the binding entry in experiment [1], in experiment [2] and in experiment [3] was “binds” throughout.
As to “AD-SSV3-D (SSV3 residues 1 to 858, lacking the SSV3-specific C-terminal 25 aa) (Arabidopsis thaliana) (domain or fragment)”, the binding result in experiment [3] is given as “binds”.
Turning to “EYFP(C)-SSV2 (SIZ1 splicing variant 2) (Arabidopsis thaliana) (enzyme)”, in experiment [4], the binding result is given as “binds”.

For the origin of these results see publication PMC11142376.
